Test: Pharmacokinetic study in healthy adults of single vs. multiple oral doses of colchicine tablets (Example 1);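 note: Single-dose and multiple-dose periods given to the same subjects, with a 14-day washout between the two periods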
Assay type: in vivo, human
Conditions: after colchicine 0.6 mg single and multiple doses; LOQ 0.2 ng/mL; 13 subjects

SMILES: COc1c(O)cc2c(c1OC)-c1ccc(OC)c(=O)cc1[C@@H](NC(C)=O)CC2 [3-O-demethylcolchicine]
- metabolite plasma concentration: only one sample from 1 subject (of 13 subjects) had a detectable

Source: patent publication US20110046227A1, “METHODS FOR CONCOMITANT ADMINISTRATION OF […] A SECOND ACTIVE AGENT” (MUTUAL PHARMACEUTICAL COMPANY, INC., priority 2009, published 2011)
